# Measurements reported in PubChem BioAssay AID1508600 (Functional Genomics Laboratory (NCATS/FGL), 2020).
# Hit rate of the full screen: of about 53,000 sequences, about 3,700 (7%) were called active.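 Rule for the calls: active = gene knockdowns whose robust z-score for IL-1 alpha signal is at least 2 or at most -2, so actives lie on both sides; inactive = the rest.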 The list shows a part of the results.
# Test: Components of the Cytosolic LPS Sensing Pathway: Gene Identification via Genome-wide siRNA Screen;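 note: robust z of the log signal after scaling to non-targeting control siRNA wells of the plate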
# Conditions: RAW264.7 macrophages, IL-1a HTRF, actives lie on both sides, screened at 100 nM (by protocol), cells primed 5 h with Pam3CSK4 first
# Method in brief: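 RAW264.7 mouse macrophages reverse-transfected with single siRNAs (100 nM final) for 48h, primed with Pam3CSK4 for 5 hours, then transfected with LipidA for 24 hour. Supernatant IL-1a read by HTRF; values normalized to negative-control median, log-transformed robust z-scores.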
row,Sequence,z-score
1,GAGGUACUUACAGGUUGUCTT against Mageb1,inactive: -0.431
2,GGAGAUGAAUGUUUACAACTT against Sema6a,inactive: 1.24
3,AUUGGACUUCUACAUGGCUTT against Olfr207,inactive: 1.43
4,GGGAGAUGAUAAUAUGUAUTT against Pogk,inactive: -1.62
5,GCUCCAGCUCUGCUUUAAGTT against 4931440P22Rik,inactive: 1.28
6,GGUACAUGAAGAAAAGUAATT against Lrrc19,inactive: -0.243
7,GGAGUGGGAUGAAAUUACATT against Slc35f4,inactive: -1.5
8,CGAGCUAUUUACUUUGAUGTT against Gfm1,inactive: 0.419
9,GGAGCUCAUGGAAAUCUGUTT against Pfpl,inactive: 0.446
10,GGACACCUUUCAUCAAAUUTT against Nat3,inactive: 0.288
11,GGAGGAUCCACGAUUACUUTT against Ifne,inactive: 1.04
12,GCACGUGGAUCCUAACAAGTT against Exd1,inactive: -1.84
13,GCCGGAUUCUUCAAAAGCUTT against Commd10,inactive: -1.02
14,CCUGGAAACAUCAUGUAGUTT against Dctn1,inactive: -1.23
15,GUGGCAAAUGCAAAUGCAATT against Fxyd3,inactive: 1.09
16,GCGAUAUUUCAAGAGAAGCTT against Evc2,inactive: -0.372
17,GGAGCAGAUUGCAUUUGAGTT against Pkdcc,inactive: -0.662
18,GGCUUGUUGAGCCCUUACATT against 4930412M03Rik,inactive: -0.627
19,CCACUAAUAGUCGUAGAAUTT against Dand5,inactive: 0.535
20,GGUUAGCUACAGAUAUAUUTT against Evi5,inactive: -0.391
21,GCCUGAUUGAUAAAGAAAUTT against Ppp1r14c,inactive: -0.0761
22,CGAUCUUCCAAACCCUCUUTT against Dhh,active: 2.54

# Quoted from above for reference:
row,Sequence,z-score
15,GUGGCAAAUGCAAAUGCAATT against Fxyd3,inactive: 1.09
16,GCGAUAUUUCAAGAGAAGCTT against Evc2,inactive: -0.372
17,GGAGCAGAUUGCAUUUGAGTT against Pkdcc,inactive: -0.662
18,GGCUUGUUGAGCCCUUACATT against 4930412M03Rik,inactive: -0.627
19,CCACUAAUAGUCGUAGAAUTT against Dand5,inactive: 0.535
20,GGUUAGCUACAGAUAUAUUTT against Evi5,inactive: -0.391
21,GCCUGAUUGAUAAAGAAAUTT against Ppp1r14c,inactive: -0.0761

# The list goes on:

row,Sequence,z-score
1,GGUUCUCCAGUUUGUCCGATT against Evx2,inactive: -0.415
2,CGAGAUCUCACAACUUAUATT against Lca5,inactive: 1.71
3,CCGUGGCGUAUGUGAUCAATT against Map3k5,inactive: -0.249
4,GGUUCCUACACGAAAGGAUTT against Eif2b4,inactive: 0.14
5,GGAAGUGCAAGGUUUACAATT against Rbbp8,inactive: 0.239
6,GGUCAAGAUGUCAUUAUGATT against Speg,inactive: -0.53
7,CCAGUUAAACACAUUAGCCTT against Mxra8,inactive: -0.373
8,GCCAUUUACAUUCCCAGGGTT against Vmo1,inactive: -1.52
9,GGAUGCUGAGUUUCUGCCATT against Babam2,inactive: -0.0609
10,GCACAUUUUACCCAAGGCCTT against Lpar4,inactive: 0.878
11,GGCAUUUGUAAUUCCAGUUTT against Spata33,inactive: 0.456
12,CCUAUCUUUUCCCUACAUGTT against Cyp4a31,active: 2.01
13,CCACGUAGGUAAGUGUAGGTT against Oard1,inactive: 0.81
14,GGAUUUGAGGUUUUAGGAATT against Qtrt2,inactive: -0.0174
15,GGCAGAUUGUGAAAAAACUTT against Slc9a6,inactive: -0.503
16,GGAUAGUUUGGUAAUGAAATT against Cds1,inactive: -0.748
17,GCAAGCAGAGAUGUUACAUTT against Olfr1284,inactive: -0.975
18,GGCUUUGAGAGGAACACCATT against Sh2d4b,active: -2.49
19,GCACCAUCGACUAAUCAAATT against 1700029J07Rik,inactive: 1.12
20,GGUAUCCAGAUGAAAGAUGTT against Nlrp10,inactive: -1.13
21,GCAUUAAAGUAGAAGGUCUTT against Snx31,inactive: 0.812
22,GGCGUAUGCAGAAUUCUACTT against Cox6c,inactive: -0.0709

row,Sequence,z-score
1,GCUUCUGUUCAAAUACUUATT against Tal1,inactive: 1.02
2,GGAAGACCCUAAGGACUAUTT against Srpk3,inactive: -0.269
3,CCCUAAUUCAUUAGCUAUATT against Dhdds,inactive: 0.111
4,GGUCAUGACAGGAUACCCATT against Fam163b,inactive: -1.99
5,GGUGUCGACAGGAUGGAAUTT against Adamts7,inactive: -0.245
6,GCAGUAAAGCUUGUGUAGGTT against Mpdu1,inactive: 0.297
7,GCUGAGUGAAUCCACGUACTT against Mzb1,active: -2.65
8,CCACAAGCUUCAAUGACACTT against 6430571L13Rik,inactive: -0.727
9,GCCAAUUAAUGAUUGCUUUTT against Zfp322a,inactive: 0.945
10,GGACAAGAAGAAGAAGCGCTT against Micu1,inactive: -0.546
11,CGUGGAUCGGAACAGUAUCTT against Lrrc10,inactive: 0.874
12,GCUUUAGAGUUCAAUAGUCTT against Zfp592,inactive: -0.172
13,GGGCCAUUACAGAGUUUCUTT against Apobec1,inactive: 0.964
14,GGCUUUUUGCUUUAGCUUUTT against Cfl1,inactive: 0.0101
15,GGCAGAUCGAAGAGAACAATT against Prl8a9,inactive: 0.528
16,GCCUAAAUUUAUUCAGGUUTT against Neurod1,inactive: 0.386
17,GGCGAAGGAGAAGAAUUAATT against Rhox5,inactive: 0.352
18,CGCAAUGGUAAGAAUCACCTT against 9230106D20Rik,inactive: -0.149
19,GGGAAUCAAAGGCUUUGGGTT against Ms4a1,inactive: -1.15
20,GGAAACUGAAAAACAGAGUTT against Xbp1,inactive: -0.957
21,GGAACAGCAGUUUUUGUUUTT against Rnf44,inactive: 0.097
22,GGUUUAUGCAAUGAAGCUUTT against Rock2,inactive: -0.0928

# Two records drawn at random from the list so far, as already listed:
row,Sequence,z-score
22,GGUUUAUGCAAUGAAGCUUTT against Rock2,inactive: -0.0928
10,GGACAAGAAGAAGAAGCGCTT against Micu1,inactive: -0.546

# (cont.)

row,Sequence,z-score
1,GGCAACAGACAUUCAUCUUTT against Mfng,inactive: 0.807
2,GGUAUGAACCGUGAUCCUCTT against Lrrtm4,inactive: 1.84
3,CCUCAACUCCGACAAACAGTT against Itfg1,inactive: -1.47
4,GGUUGUCUUCAACACCAAATT against Lgals7,inactive: -0.147
5,GGGCCUCUUCCUUAAGCAUTT against Snx8,inactive: -0.382
6,GGCUGUGAAAAAACUAGAATT against Serpina1e,inactive: -0.359
7,GGGCCAAUUUAAGUAUAUCTT against Gpr182,inactive: 0.577
8,GCUUUCUGGGUAACAUAGGTT against Ubqln3,inactive: -1.46
9,GGAAGAGAAUGAAAUGUACTT against Snrnp48,inactive: -0.227
10,GCUUGAUCGCUUUCAACUCTT against Coro7,inactive: 0.734
11,GUAUUAUAGACACCUUGCATT against Phip,inactive: -0.835
12,GGCUAAGUUCGCUUACAAATT against Tmem120a,inactive: -0.477
13,GGUCUAUACCAUCCUAUUGTT against Faim2,inactive: -0.273
14,CCCACUUUGAAAAAGACUCTT against Mei4,active: 2.5
15,GCACUGUGAAUGCUAUACCTT against Kmt5c,inactive: -0.454
16,CCGUCGUACACAAUCUUACTT against Fgfr4,inactive: -0.512
17,GGUCUCAUCUAAGGUGUCATT against Pcdha7,inactive: 0.867
18,GGCUGUCAAAACAGUGCUCTT against Hmgcs2,inactive: 1.45
19,GGUAUCAGACAGCUGUAACTT against Mptx1,inactive: 0.359
20,GGAAGCUGAAAAAUGAACUTT against Sytl5,inactive: -0.7
21,GGUUGUGAUCAAUUAUUCATT against Evl,inactive: 1.27
22,CGGUGCUGUAUAUUCAUAUTT against Chrm4,inactive: -0.987

row,Sequence,z-score
1,GGUAGCAGCCUUCCGACAUTT against Mtmr9,inactive: 0.0194
2,GGAGCAAAUCCAGAACCGATT against Trim27,inactive: 1.39
3,GGUUCAGGAGAACUUCAGUTT against Ambp,inactive: 1.96
4,CCAUUGAUCUCAUCAACCCTT against Paf1,inactive: -0.608
5,GGAGCAACUAGGAUGAUGATT against Zbtb32,inactive: -0.987
6,GGAGAACUACCUGUCAGAATT against Tnni2,inactive: 0.276
7,GGAAUCACAGUGCAGAAGGTT against Olfr1262,inactive: 0.15
8,GCUACAGGGAAGUAUUGAATT against Apc,active: 2.05
9,CCGUCUAUGGUUCAAGGUCTT against Cdca8,inactive: -0.814
10,GCGAGCUUUAACCUUUCCATT against Olfr1028,active: -2.49
11,GGACCAGCUGAUCUCAGUATT against Olfr418,inactive: -1.94
12,GGUAAAUCAGAAGACUGAATT against Tent2,inactive: 0.743
13,GGAAGAUUCAGCCUUUAGATT against Cchcr1,inactive: -1.06
14,GGCCAACCAAGAGGACAAUTT against Nup107,inactive: -1.52
15,CCUACCAGUGACUGCUACATT against Fam222a,inactive: -1.29
16,GGCCAAACUAAUGUUUUUCTT against Prox2,inactive: -0.594
17,GGUGAACCUUGGUACCCAUTT against Mrps18b,inactive: -0.186
18,CCUAGGUCAUACCAAUAUUTT against Spin4,inactive: -0.487
19,GCAGACCCAGUUUUGACAATT against Llgl1,inactive: -0.0122
